Assay results reported in article PMC12648486, “A LisH-domain protein interaction map reveals a Lis1-ARIH2-dynein regulatory axis” (iScience, 2025).
No constants are given. Whether binding was seen depends on the method and setting. In cells and extracts the contact can be indirect. A yes stands for co-enrichment or nearness to the bait. Other partners may have been found. No binding means not detected with the bait. Blank lines part the entries; values can stand above or below the molecule they belong to.

Sequences of proteins named here, by UniProt entry; tags and fusion partners are left off.
UniProt Q13619: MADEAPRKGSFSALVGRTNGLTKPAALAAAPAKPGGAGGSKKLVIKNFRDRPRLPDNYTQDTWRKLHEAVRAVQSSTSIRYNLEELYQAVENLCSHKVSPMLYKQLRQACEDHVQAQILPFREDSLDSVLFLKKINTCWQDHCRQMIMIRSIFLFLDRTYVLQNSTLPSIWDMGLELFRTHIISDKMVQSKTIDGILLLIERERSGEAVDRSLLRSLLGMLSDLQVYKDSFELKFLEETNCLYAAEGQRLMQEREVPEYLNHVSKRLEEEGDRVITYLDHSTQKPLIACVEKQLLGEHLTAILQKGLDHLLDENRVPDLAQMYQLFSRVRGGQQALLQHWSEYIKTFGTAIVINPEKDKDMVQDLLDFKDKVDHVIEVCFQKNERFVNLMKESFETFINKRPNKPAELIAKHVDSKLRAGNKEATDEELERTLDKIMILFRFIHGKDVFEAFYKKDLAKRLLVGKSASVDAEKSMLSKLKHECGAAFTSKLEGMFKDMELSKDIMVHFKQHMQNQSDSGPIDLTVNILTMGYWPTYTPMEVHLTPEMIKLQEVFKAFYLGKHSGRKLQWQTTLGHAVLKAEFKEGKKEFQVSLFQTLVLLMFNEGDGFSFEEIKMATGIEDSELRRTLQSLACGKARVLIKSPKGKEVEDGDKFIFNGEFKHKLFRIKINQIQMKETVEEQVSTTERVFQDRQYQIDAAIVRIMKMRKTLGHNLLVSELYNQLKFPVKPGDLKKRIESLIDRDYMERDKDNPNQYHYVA
UniProt Q8IWT3: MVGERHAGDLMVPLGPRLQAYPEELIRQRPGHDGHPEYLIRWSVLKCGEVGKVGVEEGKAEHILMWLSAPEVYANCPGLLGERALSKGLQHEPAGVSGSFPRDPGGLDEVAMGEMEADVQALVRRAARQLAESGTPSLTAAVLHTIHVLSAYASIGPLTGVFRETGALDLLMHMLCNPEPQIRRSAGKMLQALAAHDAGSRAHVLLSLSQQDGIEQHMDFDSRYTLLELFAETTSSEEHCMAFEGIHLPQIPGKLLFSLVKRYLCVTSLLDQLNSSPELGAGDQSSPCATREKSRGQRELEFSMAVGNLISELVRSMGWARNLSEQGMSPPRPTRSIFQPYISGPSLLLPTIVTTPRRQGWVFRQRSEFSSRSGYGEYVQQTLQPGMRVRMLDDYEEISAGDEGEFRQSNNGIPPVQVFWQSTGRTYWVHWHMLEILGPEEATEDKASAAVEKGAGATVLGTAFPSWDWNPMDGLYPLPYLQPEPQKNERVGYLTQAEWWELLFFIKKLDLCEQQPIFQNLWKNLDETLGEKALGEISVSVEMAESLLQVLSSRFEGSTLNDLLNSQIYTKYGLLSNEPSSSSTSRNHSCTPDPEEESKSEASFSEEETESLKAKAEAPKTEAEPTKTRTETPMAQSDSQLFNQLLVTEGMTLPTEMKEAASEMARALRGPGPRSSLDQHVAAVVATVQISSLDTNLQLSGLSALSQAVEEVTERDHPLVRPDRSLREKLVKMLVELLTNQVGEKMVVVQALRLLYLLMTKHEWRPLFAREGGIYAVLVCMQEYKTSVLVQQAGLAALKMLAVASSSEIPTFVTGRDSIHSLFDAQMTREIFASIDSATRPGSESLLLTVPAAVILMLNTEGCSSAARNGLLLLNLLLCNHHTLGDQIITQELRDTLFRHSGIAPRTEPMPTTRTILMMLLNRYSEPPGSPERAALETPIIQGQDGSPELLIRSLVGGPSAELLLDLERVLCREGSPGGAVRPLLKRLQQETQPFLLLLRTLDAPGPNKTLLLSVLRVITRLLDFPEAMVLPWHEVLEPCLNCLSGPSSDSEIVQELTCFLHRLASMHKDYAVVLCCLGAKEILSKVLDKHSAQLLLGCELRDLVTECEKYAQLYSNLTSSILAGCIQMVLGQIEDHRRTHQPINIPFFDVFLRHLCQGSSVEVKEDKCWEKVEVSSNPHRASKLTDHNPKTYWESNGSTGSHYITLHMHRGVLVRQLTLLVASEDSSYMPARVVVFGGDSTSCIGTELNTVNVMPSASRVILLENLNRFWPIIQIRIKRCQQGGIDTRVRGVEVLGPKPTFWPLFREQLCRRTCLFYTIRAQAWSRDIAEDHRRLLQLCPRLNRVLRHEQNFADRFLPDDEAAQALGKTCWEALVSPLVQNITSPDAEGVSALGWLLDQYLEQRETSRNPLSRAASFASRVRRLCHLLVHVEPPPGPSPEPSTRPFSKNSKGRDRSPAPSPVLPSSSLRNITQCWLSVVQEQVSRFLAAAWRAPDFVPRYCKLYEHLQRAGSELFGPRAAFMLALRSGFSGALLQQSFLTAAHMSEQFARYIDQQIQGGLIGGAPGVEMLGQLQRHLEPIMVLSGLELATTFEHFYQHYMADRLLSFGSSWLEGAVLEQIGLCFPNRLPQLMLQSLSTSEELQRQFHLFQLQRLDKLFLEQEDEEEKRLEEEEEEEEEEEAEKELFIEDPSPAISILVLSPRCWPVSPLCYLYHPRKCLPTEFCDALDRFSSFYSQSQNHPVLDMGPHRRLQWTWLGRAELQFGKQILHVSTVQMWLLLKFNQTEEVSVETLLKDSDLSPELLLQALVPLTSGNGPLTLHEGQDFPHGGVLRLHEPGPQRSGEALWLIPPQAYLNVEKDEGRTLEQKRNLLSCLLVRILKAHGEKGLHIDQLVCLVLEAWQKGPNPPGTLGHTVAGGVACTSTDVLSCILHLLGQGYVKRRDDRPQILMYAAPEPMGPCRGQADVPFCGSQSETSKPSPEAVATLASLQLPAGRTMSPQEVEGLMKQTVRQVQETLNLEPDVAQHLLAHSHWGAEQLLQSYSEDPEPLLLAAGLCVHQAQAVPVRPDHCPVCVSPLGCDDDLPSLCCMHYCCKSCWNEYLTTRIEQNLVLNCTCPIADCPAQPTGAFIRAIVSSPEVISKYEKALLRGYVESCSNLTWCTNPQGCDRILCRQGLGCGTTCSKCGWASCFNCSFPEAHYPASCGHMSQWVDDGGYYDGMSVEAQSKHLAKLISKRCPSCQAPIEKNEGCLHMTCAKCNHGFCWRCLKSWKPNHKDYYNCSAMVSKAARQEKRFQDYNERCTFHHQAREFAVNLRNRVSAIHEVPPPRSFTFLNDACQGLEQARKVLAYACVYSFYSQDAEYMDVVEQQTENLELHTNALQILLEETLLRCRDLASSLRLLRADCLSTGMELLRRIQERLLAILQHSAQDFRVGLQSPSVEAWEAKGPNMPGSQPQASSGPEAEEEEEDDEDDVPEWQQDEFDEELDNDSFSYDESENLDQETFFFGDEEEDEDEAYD
UniProt Q13620: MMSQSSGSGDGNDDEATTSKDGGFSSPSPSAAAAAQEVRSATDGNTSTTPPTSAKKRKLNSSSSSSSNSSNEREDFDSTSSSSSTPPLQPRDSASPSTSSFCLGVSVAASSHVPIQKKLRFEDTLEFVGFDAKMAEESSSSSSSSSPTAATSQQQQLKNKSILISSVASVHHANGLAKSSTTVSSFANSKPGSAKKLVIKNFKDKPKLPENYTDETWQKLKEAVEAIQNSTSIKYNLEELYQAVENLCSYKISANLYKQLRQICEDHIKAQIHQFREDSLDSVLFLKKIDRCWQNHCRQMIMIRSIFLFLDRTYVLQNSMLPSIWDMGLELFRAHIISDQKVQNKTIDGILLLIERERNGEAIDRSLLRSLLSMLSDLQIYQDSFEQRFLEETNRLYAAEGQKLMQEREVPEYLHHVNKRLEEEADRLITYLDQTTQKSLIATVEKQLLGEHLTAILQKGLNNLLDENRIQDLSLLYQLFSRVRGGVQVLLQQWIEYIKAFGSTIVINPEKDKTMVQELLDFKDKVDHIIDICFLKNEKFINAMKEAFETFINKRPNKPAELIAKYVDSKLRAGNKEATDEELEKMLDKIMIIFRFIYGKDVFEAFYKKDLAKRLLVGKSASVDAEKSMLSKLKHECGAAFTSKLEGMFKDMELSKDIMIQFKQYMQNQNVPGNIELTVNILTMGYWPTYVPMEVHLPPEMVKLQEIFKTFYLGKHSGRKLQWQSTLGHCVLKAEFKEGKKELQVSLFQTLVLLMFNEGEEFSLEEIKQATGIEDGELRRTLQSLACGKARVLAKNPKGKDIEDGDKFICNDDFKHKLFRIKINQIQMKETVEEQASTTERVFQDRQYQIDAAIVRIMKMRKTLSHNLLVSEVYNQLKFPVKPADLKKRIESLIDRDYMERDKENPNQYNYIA
UniProt Q14999: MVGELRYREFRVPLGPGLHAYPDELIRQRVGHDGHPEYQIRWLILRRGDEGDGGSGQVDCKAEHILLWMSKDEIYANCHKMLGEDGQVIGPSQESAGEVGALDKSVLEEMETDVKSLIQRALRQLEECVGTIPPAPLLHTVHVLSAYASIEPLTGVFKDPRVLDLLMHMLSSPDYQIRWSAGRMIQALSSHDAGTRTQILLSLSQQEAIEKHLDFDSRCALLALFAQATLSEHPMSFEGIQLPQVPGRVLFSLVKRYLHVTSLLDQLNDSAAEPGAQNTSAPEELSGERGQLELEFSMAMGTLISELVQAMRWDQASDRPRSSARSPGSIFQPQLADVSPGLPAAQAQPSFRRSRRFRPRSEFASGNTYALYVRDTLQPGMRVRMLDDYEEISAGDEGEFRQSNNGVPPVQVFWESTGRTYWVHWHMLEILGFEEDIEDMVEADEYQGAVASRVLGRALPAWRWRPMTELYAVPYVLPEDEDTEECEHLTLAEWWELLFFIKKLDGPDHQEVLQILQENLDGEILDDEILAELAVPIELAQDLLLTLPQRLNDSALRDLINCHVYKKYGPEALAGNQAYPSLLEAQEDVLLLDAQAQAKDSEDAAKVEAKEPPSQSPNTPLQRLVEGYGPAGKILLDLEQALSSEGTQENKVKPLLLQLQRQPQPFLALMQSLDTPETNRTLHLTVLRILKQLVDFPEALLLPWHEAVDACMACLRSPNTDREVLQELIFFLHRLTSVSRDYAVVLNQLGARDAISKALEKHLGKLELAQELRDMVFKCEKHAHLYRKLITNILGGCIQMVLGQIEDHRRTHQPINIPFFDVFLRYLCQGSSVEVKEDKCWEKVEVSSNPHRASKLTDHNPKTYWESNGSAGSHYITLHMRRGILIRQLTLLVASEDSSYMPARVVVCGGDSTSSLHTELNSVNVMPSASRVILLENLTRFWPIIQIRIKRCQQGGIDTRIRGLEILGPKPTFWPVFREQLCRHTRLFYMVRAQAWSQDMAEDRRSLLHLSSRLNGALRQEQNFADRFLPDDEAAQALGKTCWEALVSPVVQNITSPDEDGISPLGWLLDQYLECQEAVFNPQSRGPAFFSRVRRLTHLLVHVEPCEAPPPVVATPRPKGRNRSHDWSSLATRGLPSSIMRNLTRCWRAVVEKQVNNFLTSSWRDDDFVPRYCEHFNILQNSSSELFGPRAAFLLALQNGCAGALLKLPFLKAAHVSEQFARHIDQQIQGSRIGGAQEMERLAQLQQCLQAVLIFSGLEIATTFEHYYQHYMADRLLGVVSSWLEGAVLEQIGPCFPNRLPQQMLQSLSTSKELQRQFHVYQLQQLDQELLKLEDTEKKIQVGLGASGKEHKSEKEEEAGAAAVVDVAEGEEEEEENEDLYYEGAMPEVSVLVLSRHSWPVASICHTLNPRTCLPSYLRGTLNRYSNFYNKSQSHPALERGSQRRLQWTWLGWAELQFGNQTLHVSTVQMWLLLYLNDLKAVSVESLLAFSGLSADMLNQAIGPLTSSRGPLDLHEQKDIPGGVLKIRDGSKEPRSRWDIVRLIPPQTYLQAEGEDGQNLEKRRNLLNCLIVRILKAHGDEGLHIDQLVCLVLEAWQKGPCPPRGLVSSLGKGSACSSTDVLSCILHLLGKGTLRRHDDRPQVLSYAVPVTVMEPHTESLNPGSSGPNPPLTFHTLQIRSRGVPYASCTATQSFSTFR
UniProt O95376: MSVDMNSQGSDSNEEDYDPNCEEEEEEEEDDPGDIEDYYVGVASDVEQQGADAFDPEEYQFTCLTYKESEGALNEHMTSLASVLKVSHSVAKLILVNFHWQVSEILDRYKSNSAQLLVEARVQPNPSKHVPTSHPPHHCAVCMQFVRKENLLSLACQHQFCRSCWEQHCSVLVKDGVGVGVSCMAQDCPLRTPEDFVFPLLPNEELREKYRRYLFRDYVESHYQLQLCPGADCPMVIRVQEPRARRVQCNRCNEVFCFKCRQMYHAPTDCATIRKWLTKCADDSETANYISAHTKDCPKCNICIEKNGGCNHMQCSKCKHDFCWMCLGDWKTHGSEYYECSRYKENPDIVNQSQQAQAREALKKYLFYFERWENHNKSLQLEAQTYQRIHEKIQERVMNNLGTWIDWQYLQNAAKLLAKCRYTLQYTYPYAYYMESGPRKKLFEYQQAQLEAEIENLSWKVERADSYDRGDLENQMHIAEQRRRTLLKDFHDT

Molecular target: T1, SFB-Lis1 WT (human) (UniProt P43034)
T1 sequence: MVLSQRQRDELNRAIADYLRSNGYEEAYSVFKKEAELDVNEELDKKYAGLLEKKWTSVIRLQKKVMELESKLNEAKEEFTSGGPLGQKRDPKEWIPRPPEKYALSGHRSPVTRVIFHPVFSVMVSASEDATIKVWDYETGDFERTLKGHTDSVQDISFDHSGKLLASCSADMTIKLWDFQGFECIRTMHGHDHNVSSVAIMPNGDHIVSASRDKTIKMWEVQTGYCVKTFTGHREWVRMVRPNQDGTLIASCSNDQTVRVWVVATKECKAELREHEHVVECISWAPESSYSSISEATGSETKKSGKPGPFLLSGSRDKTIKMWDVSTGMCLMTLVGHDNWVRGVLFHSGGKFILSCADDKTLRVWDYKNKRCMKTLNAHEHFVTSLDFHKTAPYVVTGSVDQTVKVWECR
Assay: affinity purification with mass spectrometry; tandem affinity purification (streptavidin-sepharose, biotin elution, then S-protein-agarose) of SFB-tagged LisH proteins from HEK 293T lysate in NETN buffer, 4 °C; LC-MS/MS; filtered with CRAPome (SAINT 0.7, FCA ≥1.8, FCB ≥2, IS > 1)

Molecule: Cul4A (endogenous) (from UniProt Q13619 1-759)
binding: binds

Molecule: Cul9 (endogenous) (from UniProt Q8IWT3 1-2517)
binding: binds

B1: Nde1 (endogenous) (protein, UniProt Q9NXR1 1-335)
chain: MEDSGKTFSSEEEEANYWKDLAMTYKQRAENTQEELREFQEGSREYEAELETQLQQIETRNRDLLSENNRLRMELETIKEKFEVQHSEGYRQISALEDDLAQTKAIKDQLQKYIRELEQANDDLERAKRATIMSLEDFEQRLNQAIERNAFLESELDEKENLLESVQRLKDEARDLRQELAVQQKQEKPRTPMPSSVEAERTDTAVQATGSVPSTPIAHRGPSSSLNTPGSFRRGLDDSTGGTPLTPAARISALNIVGDLLRKVGALESKLASCRNLVYDQSPNRTGGPASGRSSKNRDGGERRPSSTSVPLGDKGLDTSCRWLSKSTTRSSSSC
binding: binds

The next lines start with the values.

binding: binds
Molecule: Cul4B (endogenous) (from UniProt Q13620 1-913)

binding: binds
Molecule: Cul7 (endogenous) (from UniProt Q14999 1-1698)

binding: binds
Molecule: ARIH2 (endogenous) (from UniProt O95376 1-493) (enzyme)

binding: binds
Molecule: ARIH1 (endogenous) (from UniProt Q9Y4X5 1-557) (enzyme)

binding: no binding
Molecule: Cul5 (endogenous) (from UniProt Q93034 1-780)
